Data reported in PMC8187452.
No constants are given. Whether binding was seen depends on the method and setting. In cells and extracts the contact can be indirect. These calls come from enrichment with a bait or labelling near it, and not all partners need be listed.

Sequences of proteins named here, by UniProt entry; tags and fusion partners are left off.
UniProt O80982: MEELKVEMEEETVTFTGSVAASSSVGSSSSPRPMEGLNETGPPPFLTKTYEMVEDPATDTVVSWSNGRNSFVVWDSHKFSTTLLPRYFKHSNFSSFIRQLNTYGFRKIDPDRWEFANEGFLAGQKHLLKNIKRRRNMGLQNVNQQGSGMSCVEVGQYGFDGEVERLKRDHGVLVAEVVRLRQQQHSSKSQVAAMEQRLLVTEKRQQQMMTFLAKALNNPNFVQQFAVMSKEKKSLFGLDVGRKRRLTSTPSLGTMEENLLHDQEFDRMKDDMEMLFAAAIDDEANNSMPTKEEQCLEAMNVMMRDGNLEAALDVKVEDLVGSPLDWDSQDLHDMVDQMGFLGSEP

Key:
[1] = molecular target: HSFA2-YFP expressed from pHSFA2::HSFA2-YFP (A. thaliana) (UniProt O80982); test: affinity purification with mass spectrometry; HSFA2-YFP complexes isolated from seedlings under no-HS conditions, 45 min and 3 h after 1 h HS at 37 °C; trypsin digest, Q Exactive Plus
[2] = molecular target: HSFA2-YFP expressed from pHSFA2::HSFA2-YFP (A. thaliana) (UniProt O80982); test: affinity purification with mass spectrometry; Co-IP/MS of HSFA2-YFP in the hsfa3 mutant background, without HS or 4 h after ACC; Trypsin/Lys-C digest, Q Exactive HF

binding [1]: binds
binding [2]: binds
B1: HSFA7B (endogenous) (protein, UniProt Q9M1V5 1-282)
chain: MDPSSSSRARSMPPPVPMEGLQEAGPSPFLTKTFEMVGDPNTNHIVSWNRGGISFVVWDPHSFSATILPLYFKHNNFSSFVRQLNTYGFRKIEAERWEFMNEGFLMGQRDLLKSIKRRTSSSSPPSLNYSQSQPEAHDPGVELPQLREERHVLMMEISTLRQEEQRARGYVQAMEQRINGAEKKQRHMMSFLRRAVENPSLLQQIFEQKRDREEAAMIDQAGLIKMEEVEHLSELEALALEMQGYGRQRTDGVERELDDGFWEELLMNNENSDEEEANVKQD
